No constants are given. Whether binding was seen depends on the method and setting. Binding seen in cells or lysates may run through a third protein. Binding can be weak; no strength is given.
Molecular target: Flag-tagged BMAL1 (mouse) (UniProt Q9WTL8)
Assay: co-IP

Chains of the proteins cited; added tags and fusions are not shown. Lines headed by an entry give the natural chain unless they say otherwise; changes in a name come on top. Residues count along the entry.
UniProt Q9WTL8: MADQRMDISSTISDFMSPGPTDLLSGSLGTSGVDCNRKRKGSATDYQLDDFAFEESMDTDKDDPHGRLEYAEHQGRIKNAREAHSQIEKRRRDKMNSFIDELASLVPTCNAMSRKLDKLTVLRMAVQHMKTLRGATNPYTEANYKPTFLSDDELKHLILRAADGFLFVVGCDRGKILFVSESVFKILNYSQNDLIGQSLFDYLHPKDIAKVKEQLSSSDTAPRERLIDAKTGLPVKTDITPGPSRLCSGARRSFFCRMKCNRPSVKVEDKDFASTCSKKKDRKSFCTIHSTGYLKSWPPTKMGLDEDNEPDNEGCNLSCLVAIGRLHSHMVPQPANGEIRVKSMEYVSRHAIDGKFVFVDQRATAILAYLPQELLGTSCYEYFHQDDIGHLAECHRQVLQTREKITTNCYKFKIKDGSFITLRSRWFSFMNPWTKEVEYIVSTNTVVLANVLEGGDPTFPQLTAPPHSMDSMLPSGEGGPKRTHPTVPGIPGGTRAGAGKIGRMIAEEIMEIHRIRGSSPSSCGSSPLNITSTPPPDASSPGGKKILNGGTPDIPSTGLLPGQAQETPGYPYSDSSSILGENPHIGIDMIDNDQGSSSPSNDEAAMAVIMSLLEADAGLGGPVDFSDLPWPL
UniProt A5YKK6, residues 1407-2376: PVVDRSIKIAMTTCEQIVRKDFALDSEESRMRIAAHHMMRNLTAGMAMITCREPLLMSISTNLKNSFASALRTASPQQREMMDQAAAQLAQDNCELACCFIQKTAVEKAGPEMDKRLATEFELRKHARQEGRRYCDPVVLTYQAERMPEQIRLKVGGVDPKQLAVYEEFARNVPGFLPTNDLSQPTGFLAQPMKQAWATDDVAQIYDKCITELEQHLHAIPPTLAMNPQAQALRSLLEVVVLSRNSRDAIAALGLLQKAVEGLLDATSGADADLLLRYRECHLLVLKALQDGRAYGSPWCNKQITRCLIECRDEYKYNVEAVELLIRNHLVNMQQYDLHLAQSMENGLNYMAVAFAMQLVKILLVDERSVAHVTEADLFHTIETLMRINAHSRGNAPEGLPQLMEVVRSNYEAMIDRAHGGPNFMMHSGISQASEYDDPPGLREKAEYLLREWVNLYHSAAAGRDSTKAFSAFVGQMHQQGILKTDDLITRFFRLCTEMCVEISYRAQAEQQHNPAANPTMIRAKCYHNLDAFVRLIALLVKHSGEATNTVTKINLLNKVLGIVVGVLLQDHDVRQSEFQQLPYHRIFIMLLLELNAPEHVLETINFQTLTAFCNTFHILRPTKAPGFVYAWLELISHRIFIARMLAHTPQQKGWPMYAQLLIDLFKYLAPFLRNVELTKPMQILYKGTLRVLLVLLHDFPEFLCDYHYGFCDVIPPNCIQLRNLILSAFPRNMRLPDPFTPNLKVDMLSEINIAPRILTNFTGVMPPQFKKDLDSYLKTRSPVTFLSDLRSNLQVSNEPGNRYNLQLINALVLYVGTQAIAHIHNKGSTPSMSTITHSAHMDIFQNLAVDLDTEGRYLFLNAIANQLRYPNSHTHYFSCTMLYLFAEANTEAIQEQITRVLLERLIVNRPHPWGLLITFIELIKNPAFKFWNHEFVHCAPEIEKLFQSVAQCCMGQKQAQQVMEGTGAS

binding: binds
Substance: HA-tagged CNOT1-C (amino acids 1407-2376) (from UniProt A5YKK6 1407-2376) (domain or fragment)
